Results reported in publication PMC11982199.
No constants are given. Whether binding was seen depends on the method and setting. In cells and extracts the contact can be indirect. Some entries that bind do so weakly or less than the wild type. For part of these data: Tags and fused reporters may be left off the sequences shown. Blank lines part the entries; values can stand above or below the molecule they belong to.

Amino acid sequences for entries named in this document (tags omitted).
UniProt Q9QZL0: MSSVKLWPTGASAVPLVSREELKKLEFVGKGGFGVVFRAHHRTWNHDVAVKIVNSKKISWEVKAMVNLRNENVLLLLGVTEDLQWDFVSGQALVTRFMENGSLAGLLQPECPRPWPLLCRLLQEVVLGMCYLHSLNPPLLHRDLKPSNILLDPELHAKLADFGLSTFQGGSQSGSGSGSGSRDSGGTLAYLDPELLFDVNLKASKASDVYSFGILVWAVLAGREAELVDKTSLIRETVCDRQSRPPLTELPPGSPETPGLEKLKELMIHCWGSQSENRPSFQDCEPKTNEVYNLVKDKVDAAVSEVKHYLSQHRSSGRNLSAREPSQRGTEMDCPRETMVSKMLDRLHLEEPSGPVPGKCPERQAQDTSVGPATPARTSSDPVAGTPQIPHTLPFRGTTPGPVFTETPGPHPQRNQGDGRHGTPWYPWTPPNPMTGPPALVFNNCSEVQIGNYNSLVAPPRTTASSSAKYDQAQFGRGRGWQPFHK

Experiments:
FLAG-OTUB2 = molecular target: T1, FLAG-OTUB2 (UniProt Q9CQX0); experiment: co-IP; FLAG-OTUB2 and GFP-RIPK3 plasmids co-transfected into NIH/3T3 cells for 24 h; immunoprecipitation from whole-cell lysates with anti-GFP (Fig. 4G) or anti-FLAG (Fig. 4H) antibodies, Protein A + G magnetic beads, washed 5 times with ice-cold PBS, Western blot
T1 sequence: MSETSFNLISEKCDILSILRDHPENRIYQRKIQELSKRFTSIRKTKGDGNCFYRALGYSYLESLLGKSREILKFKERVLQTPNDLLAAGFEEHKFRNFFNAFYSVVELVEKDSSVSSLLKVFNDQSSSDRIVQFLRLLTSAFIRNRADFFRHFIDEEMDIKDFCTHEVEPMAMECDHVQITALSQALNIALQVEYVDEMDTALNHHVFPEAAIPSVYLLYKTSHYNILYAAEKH

[1] = molecular target: receptor-interacting protein kinase 3 (RIPK3), endogenous (mouse (endogenous in HT22)) (UniProt Q9QZL0); experiment: co-IP; endogenous proteins; immunocomplexes harvested from HT22 whole-cell lysates with antibody overnight at 4 °C and Protein A + G magnetic beads, washed 5 times with ice-cold PBS, Western blot
GFP-RIPK3 = GFP-RIPK3 (UniProt Q9QZL0); experiment: co-IP; FLAG-OTUB2 and GFP-RIPK3 plasmids co-transfected into NIH/3T3 cells for 24 h; immunoprecipitation from whole-cell lysates with anti-GFP (Fig. 4G) or anti-FLAG (Fig. 4H) antibodies, Protein A + G magnetic beads, washed 5 times with ice-cold PBS, Western blot

binding (FLAG-OTUB2): binds
Molecule: GFP-RIPK3 (from UniProt Q9QZL0 1-486) (enzyme)

binding [1]: binds
B1: Otubain-2 (OTUB2), endogenous (enzyme, UniProt Q9CQX0 1-234)
chain: MSETSFNLISEKCDILSILRDHPENRIYQRKIQELSKRFTSIRKTKGDGNCFYRALGYSYLESLLGKSREILKFKERVLQTPNDLLAAGFEEHKFRNFFNAFYSVVELVEKDSSVSSLLKVFNDQSSSDRIVQFLRLLTSAFIRNRADFFRHFIDEEMDIKDFCTHEVEPMAMECDHVQITALSQALNIALQVEYVDEMDTALNHHVFPEAAIPSVYLLYKTSHYNILYAAEKH

binding (GFP-RIPK3): binds
B2: FLAG-OTUB2 (enzyme, UniProt Q9CQX0 1-234)
chain: MSETSFNLISEKCDILSILRDHPENRIYQRKIQELSKRFTSIRKTKGDGNCFYRALGYSYLESLLGKSREILKFKERVLQTPNDLLAAGFEEHKFRNFFNAFYSVVELVEKDSSVSSLLKVFNDQSSSDRIVQFLRLLTSAFIRNRADFFRHFIDEEMDIKDFCTHEVEPMAMECDHVQITALSQALNIALQVEYVDEMDTALNHHVFPEAAIPSVYLLYKTSHYNILYAAEKH
